{"sequences": {"note": "Protein sequences, listed by entry. Tags and fused reporters are not part of them. Lines headed by an entry give the natural chain unless they say otherwise; changes in a name come on top.", "UniProt Q01638": "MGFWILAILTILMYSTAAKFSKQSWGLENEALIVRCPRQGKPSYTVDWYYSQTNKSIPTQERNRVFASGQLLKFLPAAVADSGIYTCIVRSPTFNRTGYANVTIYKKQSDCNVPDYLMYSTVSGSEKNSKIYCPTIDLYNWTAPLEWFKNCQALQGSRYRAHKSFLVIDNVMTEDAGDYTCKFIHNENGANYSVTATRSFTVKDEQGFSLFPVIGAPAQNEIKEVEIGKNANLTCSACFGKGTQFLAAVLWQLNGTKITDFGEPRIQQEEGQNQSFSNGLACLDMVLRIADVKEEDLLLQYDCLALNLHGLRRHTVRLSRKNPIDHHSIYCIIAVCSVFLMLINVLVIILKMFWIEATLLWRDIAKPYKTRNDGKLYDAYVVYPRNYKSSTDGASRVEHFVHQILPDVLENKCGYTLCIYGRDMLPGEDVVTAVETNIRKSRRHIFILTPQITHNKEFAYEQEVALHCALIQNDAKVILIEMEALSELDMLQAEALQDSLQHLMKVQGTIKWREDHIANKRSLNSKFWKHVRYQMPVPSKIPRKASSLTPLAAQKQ"}, "source": "PubChem BioAssay AID1259354", "about": "(Paczesny and Yang Labs, IUPUI and University of Michigan, 2018)", "note": "“And” between values parts separate entries of the source, which are not always exact repeats. Equal entries are not always repeated. The campaign covered roughly 78,000 compounds. About 1,800 (2.3%) were called active. Inconclusive results, whose numbers are uncertain, are shown with a selection of clear calls. Cut-off read from the data, not from the text of the source: active = inhibition above about 30%; inconclusive = mostly about 10% to 28%; inactive = weaker than that."}
{"biological_target": "Interleukin-1 receptor-like 1 (Homo sapiens) (UniProt Q01638)", "assay": "blocks human ST2 binding to IL-33, primary screen, biochemical, AlphaLISA (AID 1259354)", "settings": "AlphaLISA ST2-Fc/biotin-IL-33 interaction, 1 h; at 17 µM, active compounds read high"}
{"smiles": "Cc1nsc(NC(=O)N(C)Cc2cnc(-c3ccccc3)s2)n1", "inhibition": "inconclusive: 19%"}
{"smiles": "Cc1ccc(S(=O)(=O)NCc2nc3cccnc3n2Cc2cccc(C)c2)cc1", "inhibition": "inactive"}
{"smiles": "CN1CCC2(CCN3CCc4c(oc5ccccc45)C3C2)N(C)C1=O", "note": "(stereo not given)", "inhibition": "inconclusive: 14%"}
{"smiles": "CN1CCNC(=O)C12CCN(C(=O)c1cc(=O)c3ccccc3[nH]1)CC2", "inhibition": "inconclusive: 10%"}
{"smiles": "CCOC(=O)C1(Cc2ccc(F)cc2F)CCCN(S(=O)(=O)c2ccsc2)C1", "note": "(stereo not given)", "inhibition": "inconclusive: 18%"}
{"smiles": "COc1cc2cccc(OC)c(=O)c2c(OC)c1OC", "inhibition": "inconclusive: 10%"}
{"smiles": "CC12CN3CC(C)(CN(C1)C3(C)c1ccc(O)cc1)C2=O", "note": "(stereo not given)", "inhibition": "inconclusive: 10%"}
{"smiles": "COCc1cc(CN2CCC3(CCCN(Cc4cc(OC)ccc4F)C3)C2)ccc1OC", "note": "(stereo not given)", "inhibition": "inconclusive: 13%"}
{"smiles": "Cc1nc2c(ccc3nc(NC(=O)c4ccc(C)c(C)c4)sc32)s1", "inhibition": "active: 41%"}
{"smiles": "N/C(=N/OC(=O)c1ccc(Cl)c([N+](=O)[O-])c1)c1ccncc1", "inhibition": "inconclusive: 15%"}
{"smiles": "O=C(Nc1ccccc1Cl)c1cc2cc(Br)ccc2oc1=O", "inhibition": "inconclusive: 14%"}
{"smiles": "O=C(NCc1ccco1)C1CCN(c2ccc(-c3ccc(Br)s3)nn2)CC1", "inhibition": "inconclusive: 17%"}
{"smiles": "C=CCn1c(-c2ccccc2)csc1=Nc1ccc(O)cc1", "inhibition": "active: 53% and active: 41%"}
{"smiles": "Cc1c(C(=O)NCCCN2CCOCC2)oc2ccc(S(=O)(=O)N3CCCC3)cc12", "inhibition": "inactive"}
{"smiles": "O=C(Cn1cnc2c(cnn2-c2ccccc2)c1=O)Nc1cccc(Cl)c1", "inhibition": "inactive"}
{"smiles": "CCOc1ccc(NC2=CC(=NS(=O)(=O)c3ccc(F)cc3)c3ccccc3C2=O)cc1", "inhibition": "active: 95%"}
{"smiles": "O=C1C2CCCN2C(c2cccc(Cl)c2)N1c1nccs1", "note": "(stereo not given)", "inhibition": "inactive"}
{"smiles": "COc1cccc(C2c3[nH]c4ccccc4c3CCN2C(=O)C2=CCCC2)c1OC", "note": "(stereo not given)", "inhibition": "inactive"}
{"smiles": "O=C1Nc2ccccc2SC1CC(=O)N1CCc2ccccc2C1", "note": "(stereo not given)", "inhibition": "inconclusive: 12%"}
{"smiles": "c1cncc(-c2nc3cc(Cc4ccc5oc(-c6cccnc6)nc5c4)ccc3o2)c1", "inhibition": "inconclusive: 21%"}
{"smiles": "CCOC(=O)C(C)(C)N(Cc1cccc(Cl)c1)S(=O)(=O)c1ccc(Br)cc1", "inhibition": "inactive"}
{"smiles": "Cc1[nH]c2ccc(CNC(=O)C3CC(=O)N(c4cccc(O)c4)C3)cc2c1C", "note": "(stereo not given)", "inhibition": "inactive"}
{"smiles": "CCOc1ccccc1NS(=O)(=O)c1cc(Br)cc2c1N(C(=O)C1CC1)CC2", "inhibition": "inconclusive: 15%"}
{"smiles": "Cc1nc(N=Nc2ccc(C(=O)O)cc2)c(COP(=O)(O)O)c(C=O)c1O", "inhibition": "inconclusive: 11%"}
{"smiles": "CC(C)n1c(CN2CCC(C3(C)NC(=O)NC3=O)CC2)nc2ccccc21", "note": "(stereo not given)", "inhibition": "inconclusive: 12%"}
{"smiles": "O=C(NCC1CCCN(C2CCOCC2)C1)C1(c2ccc(Cl)cc2)CC1", "note": "(stereo not given)", "inhibition": "inconclusive: 10%"}
{"smiles": "C=CCOc1ccc(C=Nc2ccc(OC)cc2)c(O)c1", "inhibition": "inconclusive: 24%"}
{"smiles": "CCCCc1ncc(CN2CCN(c3ccccc3OC)CC2C)[nH]1", "note": "(stereo not given)", "inhibition": "inconclusive: 17%"}
{"smiles": "O=C1CC(c2cccnc2N2CCOCC2)c2cnn(Cc3ccncc3)c2N1", "note": "(stereo not given)", "inhibition": "inactive"}
{"smiles": "Cc1ccc(C)c(-c2cn3c(C(=O)N(C)Cc4nc(C)no4)csc3n2)c1", "inhibition": "inconclusive: 16%"}
{"smiles": "Cc1cc(C)cc(NC(=O)c2c(N)sc3c2CCCC3)c1", "inhibition": "inactive"}
{"smiles": "COc1ccc(-c2cc(-c3ccc(C)cc3)[nH]c(=O)c2C#N)cc1", "inhibition": "inactive"}
{"smiles": "CC(C)C(NS(=O)(=O)c1ccc2c(c1)oc(=O)n2C)C(=O)NCc1ccc(F)cc1", "note": "(stereo not given)", "inhibition": "inconclusive: 17%"}
{"smiles": "CCn1c(CC2CCNCC2)nn(CC(=O)NCC2CCCO2)c1=O", "note": "(stereo not given)", "inhibition": "inactive"}
{"smiles": "CCN(CC)C(=O)C1CCCN(Cc2nc(C(c3ccccc3)c3ccccc3)no2)C1", "note": "(stereo not given)", "inhibition": "inactive"}
{"smiles": "CCc1cccc(NS(=O)(=O)c2ccccc2[N+](=O)[O-])c1", "inhibition": "inconclusive: 16%"}
{"smiles": "O=c1c(Oc2ccccc2)c(C(F)(F)F)oc2c3c(ccc12)OCCO3", "inhibition": "inconclusive: 13%"}
{"smiles": "Cc1nc2sc(C(c3ccccc3)N3CCN(c4ccccc4)CC3)c(O)n2n1", "note": "(stereo not given)", "inhibition": "inactive"}
{"smiles": "COc1ccc(/C=C2/SC(=O)N(CN3CCCCC3)C2=O)c(OC)c1", "inhibition": "inactive"}
{"smiles": "Cc1ccc(O)c(NC(=O)c2cc(-c3ccc4c(c3)OCO4)on2)c1", "inhibition": "inconclusive: 26%"}
{"smiles": "C/C=C1\\C(O[C@@H]2O[C@H](CO)[C@@H](O)[C@H](O)[C@H]2O)OC=C(C(=O)O)C1CC(=O)OC[C@@H]1[C@H](C)[C@@H](OC(=O)CC2C(C(=O)OC)=COC(O[C@@H]3O[C@H](CO)[C@@H](O)[C@H](O)[C@H]3O)/C2=C\\C)C[C@H]1C(CO)CO", "note": "(stereo not given in full)", "inhibition": "inconclusive: 15%"}
{"smiles": "O=C(NC(Nc1ccc(C(F)(F)F)cc1Cl)C(Cl)(Cl)Cl)c1cccnc1", "note": "(stereo not given)", "inhibition": "active: 63%"}
{"smiles": "Cn1cnc2cc(NCc3cccc(Br)c3)ccc21", "inhibition": "inconclusive: 17% and inconclusive: 14%"}
{"smiles": "Cc1ccc(Nc2cc(C)nc(Nc3ccc(NC(=O)CCC4CCCC4)cc3)n2)cc1", "inhibition": "inactive"}
{"smiles": "O=C1CCCc2sc([N+](=O)[O-])cc21", "inhibition": "inactive"}
